Leishmania in macrophages: 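Cell assay of Leishmania donovani living inside macrophages; the read-out is not stated. Compounds at 30 µM. Direction is inferred from retests: higher values go with stronger inhibition. About 69,000 compounds were tested under these conditions; 1.5% (about 1,000) showed 50% or more at least once.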
T. brucei: 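Whole-parasite assay of Trypanosoma brucei over 72 hours; the read-out is not stated. Concentration: 30 µM. The record gives no direction; compounds that gave an IC50 in retests scored well above the rest, so higher reads as stronger inhibition. Values scatter widely below zero; nearly all retest evidence comes from the higher of the two concentrations used. Of about 64,000 compounds tested this way, about 940 (1.5%) reached 50% or more in at least one test.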
Toxoplasma: 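Assay of Toxoplasma gondii numbers, read through their beta-galactosidase reporter with a colour substrate. Compounds at 10 µM. The record gives no direction; the compounds picked for IC50 retests had high values, so higher reads as fewer parasites. About 67,000 compounds were tested under these conditions; 0.38% (about 260) showed 50% or more at least once.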
PfKRS1: 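Lysine-tRNA ligase, Plasmodium falciparum 3D7 (UniProt Q8IDJ8). Enzyme assay of the cytosolic lysyl-tRNA synthetase in 384-well plates, read by luminescence. Tested at 30 µM. Direction is inferred from only a few compounds that gave an IC50; most scored high, so higher reads as stronger inhibition. Size under these conditions: about 69,000 compounds, about 49 of them at 50% or above in at least one test.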
TcHisRS: 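Histidine-tRNA ligase, Trypanosoma cruzi CL Brener (UniProt Q4DA54). Enzyme assay of histidyl-tRNA synthetase; the read-out is not stated. Tested at 30 µM. The record gives no direction; compounds that gave an IC50 in retests scored well above the rest, so higher reads as stronger inhibition. Size under these conditions: about 69,000 compounds, about 31 of them at 50% or above in at least one test.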

The chains behind the UniProt entries cited, without tags or fusion partners. Residues count along the entry.
UniProt Q8IDJ8, 1-583: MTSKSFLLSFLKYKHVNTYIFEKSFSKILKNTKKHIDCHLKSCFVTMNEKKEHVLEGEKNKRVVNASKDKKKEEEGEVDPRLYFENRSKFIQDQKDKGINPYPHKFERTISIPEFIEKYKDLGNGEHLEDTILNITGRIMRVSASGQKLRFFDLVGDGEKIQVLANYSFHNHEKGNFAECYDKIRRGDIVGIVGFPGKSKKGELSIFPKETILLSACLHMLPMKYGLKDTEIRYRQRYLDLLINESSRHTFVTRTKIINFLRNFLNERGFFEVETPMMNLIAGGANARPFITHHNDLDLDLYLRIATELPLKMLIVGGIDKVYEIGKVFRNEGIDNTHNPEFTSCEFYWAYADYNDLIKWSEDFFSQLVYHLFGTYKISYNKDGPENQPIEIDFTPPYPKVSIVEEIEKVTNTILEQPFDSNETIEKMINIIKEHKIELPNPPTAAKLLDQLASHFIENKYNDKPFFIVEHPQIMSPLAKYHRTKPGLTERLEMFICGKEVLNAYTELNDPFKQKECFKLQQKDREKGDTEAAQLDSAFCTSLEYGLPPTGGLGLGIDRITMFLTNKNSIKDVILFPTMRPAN
UniProt Q4DA54, 1-478: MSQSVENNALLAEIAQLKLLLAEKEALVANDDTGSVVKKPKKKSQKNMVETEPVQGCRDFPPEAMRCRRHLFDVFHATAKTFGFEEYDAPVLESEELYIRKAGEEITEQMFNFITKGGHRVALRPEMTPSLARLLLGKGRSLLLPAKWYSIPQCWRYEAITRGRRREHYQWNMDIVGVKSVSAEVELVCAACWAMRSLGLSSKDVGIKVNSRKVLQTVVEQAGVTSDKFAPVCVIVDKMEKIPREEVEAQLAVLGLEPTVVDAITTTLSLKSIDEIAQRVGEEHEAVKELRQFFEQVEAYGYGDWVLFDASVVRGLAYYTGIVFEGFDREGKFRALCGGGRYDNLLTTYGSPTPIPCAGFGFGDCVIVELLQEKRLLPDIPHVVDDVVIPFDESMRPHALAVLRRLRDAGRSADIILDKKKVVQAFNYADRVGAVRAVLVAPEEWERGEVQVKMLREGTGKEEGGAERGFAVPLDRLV

The filed quantity is “Percent Effect” (%).
The record does not define 0% and 100%; most values in the screen are far below 50% and negative numbers occur (in some assays of this library far below -100).
Compounds were drawn at random from those tested, without regard to their results.
Two or more numbers in one place are separate tests of the same structure; such repeats can differ widely.
A dash means the value is not listed here; it may have been measured.

structure | Leishmania in macrophages | T. brucei | Toxoplasma | PfKRS1 | TcHisRS
O=C1CC[C@@H](C(=O)N2CCc3[nH]nc(COc4cccc(Cl)c4)c3C2)N1 | 1.912 | 10.18 | 2.089 | -3.217 | 1.676
CNS(=O)(=O)c1cccc(C(C)NCc2ccc(F)cc2F)c1 (configuration not stated) | 0.1419 | -29.85 | -2.519 | 5.297 | -1.724
c1cnc(N2CCC3(COCCN(CC4CCOCC4)C3)C2)nc1 (configuration not stated) | - | - | - | 3.615 | 7.2
CNc1ccnc(N2C[C@@H]3CC[C@H](C2)N(CCOC)C3=O)n1 | - | - | - | -0.4644 | 4.255
O=C(c1cnccn1)N1C[C@@H]2CCN(c3cccnc3)C[C@@H]2C1 | - | - | - | -4.017 | 2.956
Cc1cccc(C(C)(C)NC(=O)CCS(C)(=O)=O)c1 | -8.427 | -31.11 | -1.429 | 2.41 | 7.143
COc1c(C2CCCN2Cc2nc(C3CC3)no2)c(C)nn1C (configuration not stated) | 0.1059 | -17.65 | -3.991 | 0.1547 | 1.127
[H][C@]12CCC[C@@]1(COCc1cccnc1)CN(C(=O)Cc1ccco1)C2 | 4.847 | -47.53 | 12.3 | - | -
O=C(CCNC(=O)NC1CC1)NCc1ccccc1 | 25.75 | -5.368 | -0.413 | 2.465 | 3.03
COCCN1CCC2(CCN(CC3CC3)CC2)C1=O.O=C(O)C(F)(F)F | 11.07 and -43.44 | -38.13 | 4.598 | - | -
O=C(CCC1CCN(C2Cc3ccccc3C2)CC1)NCC1CCCO1 (configuration not stated) | -2.75 | -18.2 | 7.979 | -2.76 | 0
Cc1n[nH]c(C)c1CNC(=O)NC1CCCCC1 | 18.56 | 0.0595 | -2.363 | 7.686 | 0.4926
CCn1cnnc1CNC(=O)N1CCN(Cc2ccccc2)CC1 | 12.27 | -3.493 | -4.194 | 1.56 | -0.3774
Cc1nc(Nc2cnccn2)cc(C2CCCN2C2CCOCC2)n1 (configuration not stated) | 4.476 | -22.17 | -3.679 | -0.1597 | 5.243
Cc1nc(CSCc2ccc(OCC(F)(F)F)nc2)no1 | -11.95 | 4.724 | -14.68 | 3.961 | 0.431
Cn1cc(CCNC(=O)NCc2nnc3n2CCC3)cn1 | 3.041 | -20.42 | - | 8.758 | 2.256
CCc1nonc1NC(=O)C(C)Oc1ccccc1F (configuration not stated) | 1.131 | -3.771 | -1.747 | 0.6144 | 2.381
CCc1nc(CN2CCCC2c2c(C)nn(C)c2OC)no1 (configuration not stated) | 15.35 | 3.985 | 5.346 | 4.837 | 0
O=C(O)C(F)(F)F.c1cncc(COC2COC3(CCN(c4cnccn4)CC3)C2)c1 (configuration not stated) | 12.28 and -7.123 | -57.09 | 3.528 | - | -
CC(NC(=O)NCCCn1ccnc1)c1ccc2c(c1)OCCCO2 (configuration not stated) | -11.13 | -16.91 | 2.908 | 7.125 | 1.149
CN(C)C(=O)C1CN(Cc2ccsc2)CCN(S(C)(=O)=O)C1 (configuration not stated) | 12.35 | 6.152 | 5.764 | 5.259 | 0
Cc1cccc(N(CCC(N)=O)C(=O)c2cc(-n3cccn3)ccn2)c1 | -10.29 | -32.11 | -0.2163 | 6.738 | 6.494
CC(O)CN1CCC(CNCc2ccccc2C(F)(F)F)CC1 (configuration not stated) | 19.95 | - | 29.5 | -0.1868 | 0.5882
CCCC(C)C(=O)Nc1ccc(OC)nc1N1CCN(C(C)=O)CC1 (configuration not stated) | 0.6149 | -28.41 | 0.8039 | 0.5936 | 1.724
CN(C)CC1CN(Cc2coc(-c3cccc(F)c3)n2)CCO1 (configuration not stated) | 29.64 | 0.1473 | 9.413 | 4.137 | -4.507
O=C(NCCOc1ccc2c(c1)OCO2)C1CC(=O)N(CC2CC2)C1 (configuration not stated) | 11.04 | 16.91 | -4.959 | 2.944 | -1.515
CS(=O)(=O)N[C@@H]1CN(Cc2ccc3ccccc3c2)C[C@H]1O | 26.85 | 1.521 | 2.264 | 0.0743 | 3.714
Cc1ccc(CN2CCc3c(CN(C)C)n[nH]c3C2)s1 | - | - | - | 0.6845 | 5.747
COc1ccc(Cl)cc1S(=O)(=O)N1C[C@@H]2CC[C@H](C1)N(C)C2=O | - | - | - | 3.002 | -4
CC(Nc1ccc(Oc2cccc(C#N)c2)cc1)C(=O)NC1CC1 (configuration not stated) | -20.52 | -387.7 | -6.798 | 2.144 | 1.587
CCN(Cc1ccncc1)c1cc(C2CCCNC2)nc(C)n1 (configuration not stated) | -18.58 | 7.127 | 14.41 | 4.171 | 15
Cc1ccc(CN(C)C(=O)c2scnc2C)cc1 | 8.025 | 3.454 | 9.168 | 2.558 | 1.183
Cn1cc(C[C@H]2[C@H](O)CCN2CC2CCOCC2)cn1 | - | - | - | 3.739 | 13.73
O=C(NCC1CCOC1)N1CCN(Cc2ccc3c(c2)OCO3)CC1 (configuration not stated) | 26.49 | 1.586 | -3.071 | 1.085 | 4.046
Cc1ccc(C(O)CNC(=O)c2cccnc2O)cc1 (configuration not stated) | -3.722 | -13.74 | 13.86 | -1.591 | 0
Cc1cc(=O)n(C)cc1NC(=O)NCc1cccc(F)c1 | 11.26 | -20.19 | 6.266 | 20.39 | 8.743
O=C(O)C(F)(F)F.[H][C@]12CCC[C@@]1(COc1ccccn1)CN(C(=O)C1CCOCC1)C2 | 12.69 | 15.32 | 4.34 | - | -
Cc1nc2[nH]cnc(NCCN3CCCC3)c-2n1 | 21.63 | -6.394 | 10.89 | 3.363 | 11.88
[H][C@@]12CNC[C@]1([H])CN(C(=O)c1ccc(C)nc1)C2 | -11.07 | -16.88 | -2.598 | - | -
O=C(O)C(F)(F)F.[H][C@@]12CCN(Cc3ccoc3)[C@]1([H])CC[C@@H](C(=O)N1CCCC1)O2 | 23.43 | -10.22 | 4.625 | - | -
O=C(NCCc1ccccc1)c1cn(CCNCc2cccnc2)nn1 | 18.96 | 16.34 | -1.506 | 8.683 | -5.042
Cc1cc(Cl)c2c(c1)C1(NC(=O)c3cccnc3N1)C(=O)N2 (configuration not stated) | -22.95 | -13.37 | -12.42 | 3.083 | 1.685
CCn1nc(-c2ccccc2F)ccc1=O | 7.013 | -85.34 | 1.435 | 1.878 | 0.8475
CC(C)(NS(C)(=O)=O)c1nc(-c2ccc(F)cc2Cl)no1 | -38.6 | 1.869 | -11.69 | 5.835 | 6.931
O=C(NCc1cc[nH]n1)N1CCC(Oc2ccccc2Cl)CC1 | 12.31 | -5.069 | 3.433 | -0.4635 | 3.743
Cc1cc(C)c2c(N3CCC(O)(Cn4ccnc4)CC3)ncnc2n1 | 0.788 | -12.83 | -0.8051 | 4.5 | 2.128
Cc1cc(C(=O)N2CCCC3(CN(C)C(=O)O3)C2)c2ccc(F)cc2n1 (configuration not stated) | -22.09 | -40.94 | -5.139 | -2.544 | -1.087
CC(=O)N1CCN(Cc2ccc(F)cc2)CC2(CC(=O)N(C)C2)C1 (configuration not stated) | - | - | - | -2.079 | 4.327
Cn1cc(C2CC(=O)NC23CCN(C(=O)C2CC=CC2)CC3)cn1 (configuration not stated) | -7.907 | -13.35 | 5.498 | -1.887 | 1.905
O=C1NC(C(=O)NCc2cccnc2Oc2ccc(F)cc2F)CO1 (configuration not stated) | -57.81 | -31.37 | -20.71 | -0.2995 | 3.483
COc1c(CNCCc2c[nH]c3ccccc23)c(C(C)C)nn1C | 0.9691 | -3.177 | -2.904 | 2.206 | 6.061
[H][C@]12CC[C@]([H])(CN(Cc3cccnc3)C1)N(C(=O)Nc1ccc(F)cc1)C2 | 20.19 | -48.83 | -2.189 | - | -
CC(CN1CCOC1=O)NC(=O)c1cccc(Cl)c1Cl (configuration not stated) | 22.9 | -35.94 | 21.77 | 1.479 | 1.739
O=C(COC[C@@]12CCC[C@@H]1CN(C1CCC1)C2)N1CCCC1 | - | - | - | 2.426 | 1.058
CC(C)c1nc(CNc2ccc(CCO)cc2)cs1 | -11.28 | -11.42 | 4.164 | 0.06762 | 1.053
Cc1ccccc1C1CCCN1Cc1ccc(S(=O)(=O)N(C)C)o1 (configuration not stated) | 44.07 | 3.175 | -4.424 | 0.2634 | -9.827
COCCC(=O)N1CCC(c2ccc3c(NC(C)C)n[nH]c3n2)C1 (configuration not stated) | 25.04 | -10.1 | 8.924 | -1.114 | 1.916
O=S1(=O)CCC(CNS(=O)(=O)N2CCc3ccccc3C2)C1 (configuration not stated) | 14.17 | -28.73 | 1.006 | 9.831 | 9.524
Cc1[nH]c(=O)[nH]c(=O)c1CC(=O)N1CCCN(CC2CC2)C(C(C)C)C1 (configuration not stated) | 11.09 | -3.714 | -2.136 | -0.6839 | -1.587

Once more, the final 4:

- Cc1ccccc1C1CCCN1Cc1ccc(S(=O)(=O)N(C)C)o1 (configuration not stated) : Leishmania in macrophages: 44.07%; T. brucei: 3.175%; Toxoplasma: -4.424%; PfKRS1: 0.2634%; TcHisRS: -9.827%
- COCCC(=O)N1CCC(c2ccc3c(NC(C)C)n[nH]c3n2)C1 (configuration not stated) : Leishmania in macrophages: 25.04%; T. brucei: -10.1%; Toxoplasma: 8.924%; PfKRS1: -1.114%; TcHisRS: 1.916%
- O=S1(=O)CCC(CNS(=O)(=O)N2CCc3ccccc3C2)C1 (configuration not stated) : Leishmania in macrophages: 14.17%; T. brucei: -28.73%; Toxoplasma: 1.006%; PfKRS1: 9.831%; TcHisRS: 9.524%
- Cc1[nH]c(=O)[nH]c(=O)c1CC(=O)N1CCCN(CC2CC2)C(C(C)C)C1 (configuration not stated) : Leishmania in macrophages: 11.09%; T. brucei: -3.714%; Toxoplasma: -2.136%; PfKRS1: -0.6839%; TcHisRS: -1.587%

Data taken from ChEMBL document CHEMBL3988442, “University of Dundee, Small-Polar-MMV Screening Library” (2021).